Article PMC5512694
No constants are given. Whether binding was seen depends on the method and setting. Binding seen in cells or lysates may run through a third protein.

The chains behind the UniProt entries cited, without tags or fusion partners. Where a name states a change or a piece, a line headed by the entry shows the natural chain unless it says otherwise.
UniProt Q5TH69: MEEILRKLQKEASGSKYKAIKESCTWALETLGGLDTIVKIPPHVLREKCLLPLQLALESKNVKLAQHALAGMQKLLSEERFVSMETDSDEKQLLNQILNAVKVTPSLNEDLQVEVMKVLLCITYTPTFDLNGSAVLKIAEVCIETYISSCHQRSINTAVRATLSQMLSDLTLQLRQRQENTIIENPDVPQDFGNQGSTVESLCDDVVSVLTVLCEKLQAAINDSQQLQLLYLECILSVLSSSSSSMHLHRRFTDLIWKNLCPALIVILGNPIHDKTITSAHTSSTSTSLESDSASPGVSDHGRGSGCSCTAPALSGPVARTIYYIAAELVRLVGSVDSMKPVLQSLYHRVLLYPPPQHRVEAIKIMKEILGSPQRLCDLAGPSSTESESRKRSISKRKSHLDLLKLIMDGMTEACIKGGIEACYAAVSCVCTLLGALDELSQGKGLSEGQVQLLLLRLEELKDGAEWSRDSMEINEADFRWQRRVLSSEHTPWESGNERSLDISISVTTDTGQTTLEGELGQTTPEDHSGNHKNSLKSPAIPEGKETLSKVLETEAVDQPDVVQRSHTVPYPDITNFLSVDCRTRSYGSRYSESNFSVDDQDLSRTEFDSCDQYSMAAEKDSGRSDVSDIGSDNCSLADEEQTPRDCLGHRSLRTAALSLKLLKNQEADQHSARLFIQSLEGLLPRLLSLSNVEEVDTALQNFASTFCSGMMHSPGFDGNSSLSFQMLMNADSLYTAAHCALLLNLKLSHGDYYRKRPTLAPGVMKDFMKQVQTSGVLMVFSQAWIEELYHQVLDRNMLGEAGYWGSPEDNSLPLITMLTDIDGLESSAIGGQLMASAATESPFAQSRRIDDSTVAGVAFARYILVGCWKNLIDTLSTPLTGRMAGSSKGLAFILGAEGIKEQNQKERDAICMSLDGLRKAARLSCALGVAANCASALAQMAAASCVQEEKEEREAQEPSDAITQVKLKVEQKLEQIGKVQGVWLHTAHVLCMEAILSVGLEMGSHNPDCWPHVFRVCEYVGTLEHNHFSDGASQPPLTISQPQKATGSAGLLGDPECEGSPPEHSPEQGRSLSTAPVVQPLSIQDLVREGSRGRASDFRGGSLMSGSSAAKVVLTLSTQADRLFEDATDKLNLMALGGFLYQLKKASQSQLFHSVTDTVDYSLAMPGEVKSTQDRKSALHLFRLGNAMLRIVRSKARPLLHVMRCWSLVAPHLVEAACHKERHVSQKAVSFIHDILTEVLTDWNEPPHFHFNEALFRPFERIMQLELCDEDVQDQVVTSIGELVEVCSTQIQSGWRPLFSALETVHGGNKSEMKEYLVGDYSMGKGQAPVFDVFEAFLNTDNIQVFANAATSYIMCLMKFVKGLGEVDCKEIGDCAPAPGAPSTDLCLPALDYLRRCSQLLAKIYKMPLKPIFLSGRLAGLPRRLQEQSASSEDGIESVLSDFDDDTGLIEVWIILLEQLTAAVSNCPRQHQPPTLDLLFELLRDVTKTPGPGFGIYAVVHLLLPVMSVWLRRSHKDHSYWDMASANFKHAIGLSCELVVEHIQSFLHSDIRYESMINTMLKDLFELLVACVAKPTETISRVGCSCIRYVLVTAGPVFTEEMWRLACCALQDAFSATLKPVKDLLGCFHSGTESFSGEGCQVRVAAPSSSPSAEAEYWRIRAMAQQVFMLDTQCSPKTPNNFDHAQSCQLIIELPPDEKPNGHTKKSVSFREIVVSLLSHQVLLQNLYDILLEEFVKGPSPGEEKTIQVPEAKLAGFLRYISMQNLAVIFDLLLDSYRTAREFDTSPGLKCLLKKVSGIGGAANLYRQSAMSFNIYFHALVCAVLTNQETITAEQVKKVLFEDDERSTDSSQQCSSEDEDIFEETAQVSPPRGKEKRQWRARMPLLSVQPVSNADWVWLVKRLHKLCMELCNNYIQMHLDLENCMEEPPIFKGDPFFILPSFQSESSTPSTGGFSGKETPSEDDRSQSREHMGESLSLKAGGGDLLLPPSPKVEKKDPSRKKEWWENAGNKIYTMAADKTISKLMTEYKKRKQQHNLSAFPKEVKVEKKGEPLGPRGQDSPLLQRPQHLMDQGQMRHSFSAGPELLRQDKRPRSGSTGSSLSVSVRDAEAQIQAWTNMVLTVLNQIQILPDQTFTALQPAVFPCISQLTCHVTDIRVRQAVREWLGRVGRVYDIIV
UniProt P62136: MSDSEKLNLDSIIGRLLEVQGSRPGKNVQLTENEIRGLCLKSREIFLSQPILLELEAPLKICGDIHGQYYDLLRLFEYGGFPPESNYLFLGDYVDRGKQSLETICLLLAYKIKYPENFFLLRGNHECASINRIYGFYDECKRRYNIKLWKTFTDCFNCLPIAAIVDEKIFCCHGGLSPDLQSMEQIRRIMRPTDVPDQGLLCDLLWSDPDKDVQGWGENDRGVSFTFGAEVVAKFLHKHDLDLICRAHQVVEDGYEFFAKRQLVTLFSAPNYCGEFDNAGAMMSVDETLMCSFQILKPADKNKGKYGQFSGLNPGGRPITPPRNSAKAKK

Target: FLAG-tagged BIG3 mutant lacking the RVxF motif (ΔPP1Cα) (human) (UniProt Q5TH69)
Test: co-IP; FLAG-tagged BIG3 ΔPP1Cα mutant and endogenous PP1Cα (Supplementary Fig. 1b); cells not given

- binding: no binding
Substance: alpha isoform of the catalytic subunit of protein phosphatase 1 (PP1Cα), endogenous (from UniProt P62136 1-330) (enzyme)
